Measurements taken from PubChem BioAssay AID652054 (National Center for Advancing Translational Sciences (NCATS), 2013).
Hit rate of the full screen: of about 360,000 compounds, about 9,100 (2.5%) were called active. The shares of active, inactive and inconclusive entries below differ from those in the screen. Cut-off read from the data, not from the text of the source: active = max response below about -50%; inconclusive = no clear call, values can overlap the other calls; inactive = above that.

Amino acid sequences for entries named in this document (tags omitted).
UniProt P35462, whole entry, looked up: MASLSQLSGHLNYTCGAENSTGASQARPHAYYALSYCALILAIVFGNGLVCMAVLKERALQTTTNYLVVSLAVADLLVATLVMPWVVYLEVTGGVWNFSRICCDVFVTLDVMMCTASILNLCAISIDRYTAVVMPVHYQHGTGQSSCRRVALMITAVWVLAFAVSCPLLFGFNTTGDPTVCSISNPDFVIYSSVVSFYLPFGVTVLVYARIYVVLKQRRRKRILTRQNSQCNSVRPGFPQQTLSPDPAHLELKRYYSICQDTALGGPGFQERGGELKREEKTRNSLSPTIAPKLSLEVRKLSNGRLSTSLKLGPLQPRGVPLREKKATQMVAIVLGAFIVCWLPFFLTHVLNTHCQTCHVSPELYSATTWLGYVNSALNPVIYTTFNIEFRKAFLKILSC

molecular target: D(3) dopamine receptor (Homo sapiens) (UniProt P35462); test: qHTS of D3 Dopamine Receptor Antagonist: qHTS; conditions: D3R cells, DiscoveRx beta-arrestin luminescence, antagonist mode; hits give low values
Procedure, shortened: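 Cells expressing the human receptor were seeded at 1500 cells/well, incubated overnight at 37 degrees C in 5% CO2, then exposed to library compounds with dopamine controls for 90 minutes at 37 degrees C before luminescent detection.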
% is set by controls: 0 for no effect and ±100 for the full control effect.

| SMILES | max response, negative = inhibition |
| --- | --- |
| CCCP(=O)(CC(=O)O)c1ccccc1 (centres undefined) | inconclusive: -43.7% |
| CC1(C(=O)NCc2ccco2)Cc2c(-c3ccccc3)ccnc2O1 (centres undefined) | active: -58.2% |
| Cc1ccc(-c2cc(C(=O)NCc3ccccn3)no2)cc1 | inactive: 5.53% |
| C=C(C)Cn1c(-c2cccc([N+](=O)[O-])c2)n[nH]c1=S | inconclusive: -34.4% |
| COc1cc(C=C(C#N)c2ccc([N+](=O)[O-])cc2)ccc1O | active: -51.7% |
| CC(=O)Nc1ccc(OCC(O)Cn2nc(C)c(Br)c2C)cc1 (centres undefined) | inconclusive: -39.4% |
| CC(C)(C)C(=O)[C@@H]1[C@@H]2C(=O)N(c3ccc4c(c3)OCCO4)C(=O)[C@@H]2C2c3ccccc3C=CN21 (some centres undefined) | inconclusive: -43.5% |
| O=C(NC(c1ccc2c(c1)OCO2)c1ccccn1)C1CCN(CCOc2ccccc2)CC1 (centres undefined) | active: -71.6% |
| CCc1ccc(/C=C2\Oc3c(ccc(O)c3CN3CCN(C)CC3)C2=O)cc1 | inconclusive: -30.6% |
| Cc1[nH]c2ccc(C(=O)NCCCN3CCCCC3)cc2c1C | inconclusive: -38.9% |
| O=C(/C=C/c1ccc([N+](=O)[O-])cc1)c1ccccc(=O)c1O | active: -107% |
| C/C(=N\NC(=S)NCc1ccccc1)c1ccc2ccccc2c1 | inactive: -4.51% |
| Cc1cccc(/N=C/c2c(O)ccc3oc4c(c23)CCCC4)n1 | inconclusive: -32.7% |
| C/C(=N\NC(=O)c1ccc(NS(=O)(=O)c2cccs2)cc1)c1ccc(C(C)(C)C)cc1 | inactive: -0.573% |
| Cc1[nH]c2ccccc2c1C1(O)C(=O)N(Cc2ccc3c(c2)OCO3)c2ccccc21 (centres undefined) | inconclusive: -33% |
| CC(=O)c1ccc(NC(=O)c2cccc(NC(=O)c3ccccc3)c2)cc1 | inactive: -7.89% |
| N#C/C(=C/c1cc(Br)cs1)C(=O)NCC1CCCO1 (centres undefined) | inconclusive: -30.2% |
| Oc1cc2c(cc1CN1CCc3ccccc3C1)OCO2 | inconclusive: -46% |
| Cn1nc(C(=O)NNC(=O)COc2ccccc2)c2ccccc2c1=O | inconclusive: -36.5% |
| CCOc1ccc(Cl)cc1CNCCNCCO | inconclusive: -34.6% |
| CC(/C=C/c1ccc(N(C)C)cc1)=N/N=C1/NC(=O)CC(C(=O)Nc2ccc(Cl)cc2)S1 (centres undefined) | inconclusive: -32.7% |
| OC(CN1C2=NCCN2c2ccccc21)c1ccc2c(c1)OCO2 (centres undefined) | inactive: 0% |

2 compounds picked at random from the list so far:

| SMILES | max response, negative = inhibition |
| --- | --- |
| Oc1cc2c(cc1CN1CCc3ccccc3C1)OCO2 | inconclusive: -46% |
| Cc1[nH]c2ccc(C(=O)NCCCN3CCCCC3)cc2c1C | inconclusive: -38.9% |

Later entries:

| SMILES | max response, negative = inhibition |
| --- | --- |
| CC(C)c1ccc(NC(=O)[C@@H]2CCC(=O)N2C2OC(=O)c3ccccc32)cc1 (some centres undefined) | inactive: 0% |
| CC(C)(C)NC(=O)COC(=O)c1nsc(Cl)c1Cl | inconclusive: -42% |
| CCOC(=O)c1cccc(N2C(=O)c3ccccc3S2(=O)=O)c1 | inconclusive: -35.7% |
| Cc1ccccc1Nc1ncnc2c1cnn2-c1ccccc1 | inactive: 7.5% |
| O=C(CSc1nc2ccccc2s1)N1c2ccccc2Sc2ccc(Cl)cc21 | inactive: -25.3% |
| Cc1sc2ncnc(NCC3COc4ccccc4O3)c2c1C (centres undefined) | inactive: 8.87% |
| CC[C@@H](C)[C@@H]1CN([C@@H](C)CN2CCC[C@H]2CN2C(N)=NC[C@@H]2Cc2ccccc2)C(=N)N1CCc1ccc(Cl)c(Cl)c1 | active: -66.2% |
| CCSC1=C(C#N)C(c2cccc(O)c2)CC(=O)N1 (centres undefined) | inactive: -4.46% |
| OCCC1CN(Cc2cccn2-c2nccs2)CCN1CCc1ccccc1 (centres undefined) | inconclusive: -30.6% |
| CCc1ccc(NC(=O)CSc2nc3nc(C)cc(C)n3n2)cc1 | inactive: 16.9% |
| CCC(=O)Nc1ccc(N2CCN(Cc3ccccc3)CC2)cc1 | inconclusive: -35.7% |
| O=C(O)CCCCCn1c(SCC(=O)N2CCCC2)nc2ccsc2c1=O | inconclusive: -43.6% |
| CCOC(=O)c1c(C)[nH]c2c1-c1ccccc1C(=O)C2=O | inconclusive: -41.3% |
| c1ccc(CCC2=NCCn3cccc32)cc1 | inconclusive: -34.8% |
| COC(=O)C1CCN(C(c2cc(OC)c(OC)c(OC)c2)c2sc3nc(C)nn3c2O)CC1 (centres undefined) | inactive: 14.6% |
| O=C(Cn1c(=O)n(Cc2ccco2)c(=O)c2c3c(sc21)CCCCC3)c1ccccc1 | inconclusive: -30% |
| Clc1nc2ccccc2cc1/C=N/Nc1nc2ccccc2[nH]1 | inactive: 2.38% |
| CCc1oc(C(=O)OC)cc1CSC(=N)N | inactive: 9.75% |
| CC(O)CNCCNCc1c(OCc2ccccc2)ccc2ccccc12 (centres undefined) | inconclusive: -39.7% |
| O=S(=O)(Nc1cc(Cl)ccc1-n1cncn1)c1ccc(F)cc1 | inactive: -4.97% |
| [O-][n+]1c2ccccc2[n+]([O-])c2cc(O)ccc21 | inconclusive: -36.6% |
| CC(=O)NC(c1ccc(F)c(F)c1)c1nc(-c2ccc(F)c(Cl)c2)cs1 (centres undefined) | inconclusive: -48.6% |
